# Source: PubChem BioAssay AID1259405 (NCATS, 2018)
# Aim: 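Silenced genes that increase secreted GFP made by CHO cells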 (primary screen)
# Cells: Chinese hamster CHO-K1 ovary cells with stable secreted eGFP expression
# Reagents: single siRNA against mouse genes, 0.8 pmol siRNA per well (2 µl of 400 nM stock)
# Timing: 3 days
# Detection: 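Percent of the per-plate non-targeting control median for intracellular GFP per well by laser scanning cytometry and for cell viability by ATP luminescence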
# Reading the numbers: GFP, % of control: higher = more GFP per well, higher productivity; viability (ATP), % of control: higher = more viable cells (more ATP)
# Call rule: 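Called active when intracellular GFP, relative to negative control, is at or above 120%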
# The whole screen tested about 50,000 reagents; below is an unselected part. About 4,000 of them (8%) count as active. 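Mouse siRNA library applied to hamster cells; one well for each siRNA.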 Reagents against one gene are numbered here. No sequences are given here.
gene,reagent no.,"GFP, % of control","viability (ATP), % of control",Call
Brms1 (GeneID 107392),1,83.1,98.1,inactive
Brms1 (GeneID 107392),2,117,105,inactive
Brms1 (GeneID 107392),3,148,121,active
Ctss (GeneID 13040),1,72.3,102,inactive
Ctss (GeneID 13040),2,41.9,46.7,inactive
Ctss (GeneID 13040),3,56.2,48.8,inactive
Inmt (GeneID 21743),1,63.6,94.7,inactive
Inmt (GeneID 21743),2,80.2,83.1,inactive
Inmt (GeneID 21743),3,91.4,85.4,inactive
BC005624 (GeneID 227707),1,45.3,59.7,inactive
BC005624 (GeneID 227707),2,94.6,105,inactive
BC005624 (GeneID 227707),3,147,139,active
Pkd2l1 (GeneID 329064),1,82.6,65.4,inactive
Pkd2l1 (GeneID 329064),2,81.8,66.8,inactive
Pkd2l1 (GeneID 329064),3,107,54,inactive
Slc12a7 (GeneID 20499),1,82.2,94.7,inactive
Slc12a7 (GeneID 20499),2,69.2,47.1,inactive
Slc12a7 (GeneID 20499),3,81.4,78.3,inactive
Trim16 (GeneID 94092),1,113,61.3,inactive
Trim16 (GeneID 94092),2,84,80.7,inactive
Trim16 (GeneID 94092),3,121,94.8,active
Ero1b (GeneID 67475),1,98.6,94.8,inactive
Ero1b (GeneID 67475),2,89.8,96.3,inactive
Ero1b (GeneID 67475),3,71.5,76.8,inactive
Rap1b (GeneID 215449),1,65.7,62.7,inactive
Rap1b (GeneID 215449),2,71.7,63.1,inactive
Rap1b (GeneID 215449),3,40,56.1,inactive
Dnm1 (GeneID 13429),1,37.9,37.1,inactive
Dnm1 (GeneID 13429),2,84.1,75.6,inactive
Dnm1 (GeneID 13429),3,136,43.2,active
Smc1a (GeneID 24061),1,160,132,active
Smc1a (GeneID 24061),2,76.7,99.5,inactive
Gpr139 (GeneID 209776),1,71,72,inactive
Gpr139 (GeneID 209776),2,83,99.8,inactive
Gpr139 (GeneID 209776),3,40.5,56.7,inactive

In a second layout: 4 of the entries above
gene | reagent no. | GFP, % of control | viability (ATP), % of control | Call
Ero1b (GeneID 67475) | 3 | 71.5 | 76.8 | inactive
Rap1b (GeneID 215449) | 1 | 65.7 | 62.7 | inactive
Rap1b (GeneID 215449) | 2 | 71.7 | 63.1 | inactive
Rap1b (GeneID 215449) | 3 | 40 | 56.1 | inactive
